{"sequences": {"note": "Chains of the proteins cited; added tags and fusions are not shown. Lines headed by an entry give the natural chain unless they say otherwise; changes in a name come on top.", "UniProt Q9NYF8, whole entry": "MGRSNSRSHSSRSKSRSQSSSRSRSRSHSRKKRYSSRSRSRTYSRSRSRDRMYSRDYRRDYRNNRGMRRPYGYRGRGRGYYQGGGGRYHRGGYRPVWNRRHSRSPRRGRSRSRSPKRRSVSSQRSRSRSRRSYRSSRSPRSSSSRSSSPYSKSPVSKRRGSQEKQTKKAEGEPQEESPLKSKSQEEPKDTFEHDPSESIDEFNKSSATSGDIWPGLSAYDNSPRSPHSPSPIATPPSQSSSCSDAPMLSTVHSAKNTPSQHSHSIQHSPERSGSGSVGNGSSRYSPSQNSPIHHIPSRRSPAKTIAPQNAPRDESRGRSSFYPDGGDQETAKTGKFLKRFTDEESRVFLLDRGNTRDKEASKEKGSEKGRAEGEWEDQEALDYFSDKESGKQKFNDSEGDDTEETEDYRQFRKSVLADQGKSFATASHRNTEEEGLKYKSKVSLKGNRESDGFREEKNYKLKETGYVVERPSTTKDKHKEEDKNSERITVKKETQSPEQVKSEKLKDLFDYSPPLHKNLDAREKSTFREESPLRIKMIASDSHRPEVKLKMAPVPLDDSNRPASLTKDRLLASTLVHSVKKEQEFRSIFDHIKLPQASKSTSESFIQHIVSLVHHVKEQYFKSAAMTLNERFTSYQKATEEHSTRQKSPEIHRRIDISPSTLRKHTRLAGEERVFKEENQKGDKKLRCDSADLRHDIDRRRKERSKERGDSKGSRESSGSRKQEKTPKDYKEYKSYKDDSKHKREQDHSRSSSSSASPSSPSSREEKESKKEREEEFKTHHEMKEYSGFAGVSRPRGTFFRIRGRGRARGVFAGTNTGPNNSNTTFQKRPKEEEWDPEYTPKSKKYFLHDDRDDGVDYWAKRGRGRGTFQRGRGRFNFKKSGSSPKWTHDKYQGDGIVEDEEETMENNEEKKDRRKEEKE", "UniProt Q9NW13": "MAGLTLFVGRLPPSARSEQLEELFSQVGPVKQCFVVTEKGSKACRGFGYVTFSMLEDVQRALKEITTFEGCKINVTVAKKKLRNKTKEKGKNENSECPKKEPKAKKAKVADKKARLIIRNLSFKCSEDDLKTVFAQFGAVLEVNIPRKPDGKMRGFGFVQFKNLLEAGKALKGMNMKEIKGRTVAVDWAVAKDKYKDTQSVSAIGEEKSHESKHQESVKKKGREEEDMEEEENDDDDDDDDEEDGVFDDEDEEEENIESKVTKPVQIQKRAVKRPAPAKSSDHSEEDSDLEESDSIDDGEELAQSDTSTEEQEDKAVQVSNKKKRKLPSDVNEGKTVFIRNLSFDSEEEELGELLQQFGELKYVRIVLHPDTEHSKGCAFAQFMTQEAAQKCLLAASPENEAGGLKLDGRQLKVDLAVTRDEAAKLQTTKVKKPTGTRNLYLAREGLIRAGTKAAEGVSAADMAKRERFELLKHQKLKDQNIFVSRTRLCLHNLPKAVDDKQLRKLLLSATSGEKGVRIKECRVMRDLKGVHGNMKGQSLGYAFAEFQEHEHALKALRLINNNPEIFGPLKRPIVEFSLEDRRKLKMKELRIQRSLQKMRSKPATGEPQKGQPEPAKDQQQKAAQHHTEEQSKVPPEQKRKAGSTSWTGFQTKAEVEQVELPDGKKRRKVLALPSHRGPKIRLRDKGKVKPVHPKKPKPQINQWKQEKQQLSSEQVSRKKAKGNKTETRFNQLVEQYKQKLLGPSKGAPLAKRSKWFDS", "UniProt Q9NRY5": "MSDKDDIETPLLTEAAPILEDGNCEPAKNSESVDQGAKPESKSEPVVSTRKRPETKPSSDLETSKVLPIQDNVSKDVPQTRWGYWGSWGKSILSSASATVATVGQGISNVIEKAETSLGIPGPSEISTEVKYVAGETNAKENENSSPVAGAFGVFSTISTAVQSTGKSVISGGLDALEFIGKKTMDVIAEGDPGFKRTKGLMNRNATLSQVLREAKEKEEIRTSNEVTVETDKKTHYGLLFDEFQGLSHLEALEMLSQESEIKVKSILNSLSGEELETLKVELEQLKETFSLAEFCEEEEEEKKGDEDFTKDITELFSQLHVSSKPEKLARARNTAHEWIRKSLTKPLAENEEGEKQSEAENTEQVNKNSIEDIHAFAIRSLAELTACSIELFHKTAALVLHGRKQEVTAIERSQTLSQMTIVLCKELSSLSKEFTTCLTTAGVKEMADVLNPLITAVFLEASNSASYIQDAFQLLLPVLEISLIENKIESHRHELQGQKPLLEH", "UniProt Q9NWM8": "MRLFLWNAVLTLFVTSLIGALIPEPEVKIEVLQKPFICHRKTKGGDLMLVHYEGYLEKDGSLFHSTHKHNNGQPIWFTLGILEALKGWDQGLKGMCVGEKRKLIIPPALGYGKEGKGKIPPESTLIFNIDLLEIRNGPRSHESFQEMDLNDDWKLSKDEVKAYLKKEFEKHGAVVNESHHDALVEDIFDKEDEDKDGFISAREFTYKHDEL", "UniProt Q9NYH9": "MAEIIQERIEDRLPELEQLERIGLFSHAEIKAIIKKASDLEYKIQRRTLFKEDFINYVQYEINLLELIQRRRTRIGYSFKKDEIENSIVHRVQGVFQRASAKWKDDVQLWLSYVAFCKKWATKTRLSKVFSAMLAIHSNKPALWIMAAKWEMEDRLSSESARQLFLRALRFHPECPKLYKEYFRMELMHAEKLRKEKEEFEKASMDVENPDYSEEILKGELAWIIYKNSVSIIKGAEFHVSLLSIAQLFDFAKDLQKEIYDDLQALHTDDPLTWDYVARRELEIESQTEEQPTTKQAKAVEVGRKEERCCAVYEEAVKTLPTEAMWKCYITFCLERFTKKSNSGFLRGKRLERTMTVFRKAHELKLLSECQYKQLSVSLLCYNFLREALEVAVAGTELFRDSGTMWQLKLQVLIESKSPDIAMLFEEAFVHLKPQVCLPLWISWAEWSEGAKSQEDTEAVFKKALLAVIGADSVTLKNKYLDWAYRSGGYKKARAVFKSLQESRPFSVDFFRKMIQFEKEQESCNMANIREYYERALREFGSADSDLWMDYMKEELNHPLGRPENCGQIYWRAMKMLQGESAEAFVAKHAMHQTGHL", "UniProt Q9NQR1": "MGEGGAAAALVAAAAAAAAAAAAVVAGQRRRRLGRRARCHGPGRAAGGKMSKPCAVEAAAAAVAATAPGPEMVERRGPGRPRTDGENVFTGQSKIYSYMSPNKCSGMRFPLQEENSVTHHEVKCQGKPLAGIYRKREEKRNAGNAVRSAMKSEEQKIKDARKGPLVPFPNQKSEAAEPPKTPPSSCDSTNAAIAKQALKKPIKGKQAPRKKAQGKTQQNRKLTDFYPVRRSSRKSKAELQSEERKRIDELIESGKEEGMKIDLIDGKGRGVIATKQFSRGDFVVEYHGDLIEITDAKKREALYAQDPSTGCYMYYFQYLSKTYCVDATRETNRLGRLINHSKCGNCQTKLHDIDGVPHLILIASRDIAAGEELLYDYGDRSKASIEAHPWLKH", "UniProt Q9NR50": "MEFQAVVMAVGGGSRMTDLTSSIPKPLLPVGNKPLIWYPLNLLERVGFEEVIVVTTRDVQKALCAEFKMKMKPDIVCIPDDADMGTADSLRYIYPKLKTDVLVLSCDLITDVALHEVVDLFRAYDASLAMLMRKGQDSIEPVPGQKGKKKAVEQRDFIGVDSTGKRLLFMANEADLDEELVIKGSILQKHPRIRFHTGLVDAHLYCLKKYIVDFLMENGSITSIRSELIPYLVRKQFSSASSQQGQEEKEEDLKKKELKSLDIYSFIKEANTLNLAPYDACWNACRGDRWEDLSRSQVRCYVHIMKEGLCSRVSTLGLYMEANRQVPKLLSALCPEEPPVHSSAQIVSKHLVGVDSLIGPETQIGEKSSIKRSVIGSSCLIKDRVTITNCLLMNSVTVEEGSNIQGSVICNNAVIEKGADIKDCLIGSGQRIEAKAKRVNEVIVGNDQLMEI"}, "source": "the supplement of paper PMC12819154", "about": "“High-throughput peptide-centric local stability assay extends protein–ligand identification to membrane proteins, tissues and bacteria” (Nature Structural & Molecular Biology, 2025)", "note": "Some of the results follow. Most values lie at the level of the controls, where differences are scatter.", "data": [{"compound": "CN[C@@H]1C[C@H]2O[C@@](C)([C@@H]1OC)n1c3ccccc3c3c4c(c5c6ccccc6n2c5c31)C(=O)NC4 [staurosporine]", "assay": "log2 fold change of tryptic peptide abundance, ligand vs vehicle (limited proteolysis) (log2 ratio); higher = more trypsin-susceptible (destabilized)", "conditions": "ligand concentration: 20 uM; sample: K562 cleared lysate; digestion: 4 min, 22 C (HT-PELSA RT4min, Orbitrap Astral)", "values": [{"target": "BCLAF1 (peptide sequence: MIASDSHRPEVK, peptide start residue: 537) (UniProt Q9NYF8)", "log2 fold change": -0.233}, {"target": "RBM28 (peptide sequence: GQSLGYAFAEFQEHEHALKALR, peptide start residue: 537) (UniProt Q9NW13)", "log2 fold change": 0.382}, {"target": "FAM114A2 (peptide sequence: SLAELTACSIELFHK, peptide start residue: 381) (UniProt Q9NRY5)", "log2 fold change": 0.418}, {"target": "FKBP14 (peptide sequence: SHESFQEMDLNDDWK, peptide start residue: 140) (UniProt Q9NWM8)", "log2 fold change": -0.234}, {"target": "UTP6 (peptide sequence: RELEIESQTEEQPTTK, peptide start residue: 280) (UniProt Q9NYH9)", "log2 fold change": -0.978}, {"target": "KMT5A (peptide sequence: FPLQEENSVTHHEVK, peptide start residue: 109) (UniProt Q9NQR1)", "log2 fold change": -0.253}, {"target": "EIF2B3 (peptide sequence: LLSALCPEEPPVHSSAQIVSK, peptide start residue: 329) (UniProt Q9NR50)", "log2 fold change": 0.444}]}]}
